Experimental findings from paper doi:10.1101/2023.07.11.548601 are described below.

Sequences of proteins named here, by UniProt entry; tags and fusion partners are left off.
UniProt Q9D5V5: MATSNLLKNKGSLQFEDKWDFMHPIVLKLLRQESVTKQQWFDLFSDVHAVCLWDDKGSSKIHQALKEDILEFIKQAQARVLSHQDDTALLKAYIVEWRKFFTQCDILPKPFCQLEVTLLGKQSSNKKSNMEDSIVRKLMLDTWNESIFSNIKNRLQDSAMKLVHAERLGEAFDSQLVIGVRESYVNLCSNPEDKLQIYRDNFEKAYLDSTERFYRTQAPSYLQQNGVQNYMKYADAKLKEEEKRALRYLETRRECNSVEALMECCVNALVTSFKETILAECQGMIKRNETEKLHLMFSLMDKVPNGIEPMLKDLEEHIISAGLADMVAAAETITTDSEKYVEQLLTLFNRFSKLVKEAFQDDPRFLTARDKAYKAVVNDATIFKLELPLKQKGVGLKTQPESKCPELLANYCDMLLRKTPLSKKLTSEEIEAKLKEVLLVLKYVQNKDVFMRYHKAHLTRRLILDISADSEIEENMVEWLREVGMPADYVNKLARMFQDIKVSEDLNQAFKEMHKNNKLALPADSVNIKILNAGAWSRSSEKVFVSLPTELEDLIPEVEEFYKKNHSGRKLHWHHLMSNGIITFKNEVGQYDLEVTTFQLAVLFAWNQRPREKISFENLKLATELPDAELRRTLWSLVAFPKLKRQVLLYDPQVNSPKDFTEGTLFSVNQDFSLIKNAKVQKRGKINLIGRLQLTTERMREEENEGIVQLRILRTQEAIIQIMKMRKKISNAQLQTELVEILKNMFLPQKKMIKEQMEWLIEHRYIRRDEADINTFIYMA
UniProt Q9DCC8: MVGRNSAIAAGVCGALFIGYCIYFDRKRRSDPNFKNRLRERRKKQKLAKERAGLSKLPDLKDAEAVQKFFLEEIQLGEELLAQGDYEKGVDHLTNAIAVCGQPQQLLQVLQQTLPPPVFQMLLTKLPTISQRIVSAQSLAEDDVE

Like-named read-outs stand apart in the source and are kept apart here. No constants are given. Whether binding was seen depends on the method and setting. In cells and extracts the contact can be indirect. Some entries that bind do so weakly or less than the wild type. For some of these results: Sequences can lack the tags named with a protein.

In test [1] the target is T1, biotinylated Avi-Ozz (recombinant Ozz fused to an Avi-tag) (UniProt Q9D0S4).
T1 sequence (chain, biotin on the Avi-tag (biotinylated by the coexpressed bacterial ligase BirA)): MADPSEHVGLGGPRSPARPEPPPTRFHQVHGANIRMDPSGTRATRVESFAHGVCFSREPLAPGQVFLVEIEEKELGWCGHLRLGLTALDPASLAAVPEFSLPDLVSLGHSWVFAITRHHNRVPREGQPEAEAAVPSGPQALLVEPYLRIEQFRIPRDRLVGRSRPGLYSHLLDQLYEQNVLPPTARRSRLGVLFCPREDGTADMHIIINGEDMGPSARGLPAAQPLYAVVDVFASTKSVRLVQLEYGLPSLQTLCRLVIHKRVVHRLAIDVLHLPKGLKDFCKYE
Nature of the test: pull-down.

Test [2] addresses T1, biotinylated Avi-Ozz (recombinant Ozz fused to an Avi-tag). The test can be described thus: pull-down. This is another data set of the same source.
The target of test [3] is T2, N-terminal FLAG-tagged full-length Alix (UniProt Q9WU78).
T2 sequence: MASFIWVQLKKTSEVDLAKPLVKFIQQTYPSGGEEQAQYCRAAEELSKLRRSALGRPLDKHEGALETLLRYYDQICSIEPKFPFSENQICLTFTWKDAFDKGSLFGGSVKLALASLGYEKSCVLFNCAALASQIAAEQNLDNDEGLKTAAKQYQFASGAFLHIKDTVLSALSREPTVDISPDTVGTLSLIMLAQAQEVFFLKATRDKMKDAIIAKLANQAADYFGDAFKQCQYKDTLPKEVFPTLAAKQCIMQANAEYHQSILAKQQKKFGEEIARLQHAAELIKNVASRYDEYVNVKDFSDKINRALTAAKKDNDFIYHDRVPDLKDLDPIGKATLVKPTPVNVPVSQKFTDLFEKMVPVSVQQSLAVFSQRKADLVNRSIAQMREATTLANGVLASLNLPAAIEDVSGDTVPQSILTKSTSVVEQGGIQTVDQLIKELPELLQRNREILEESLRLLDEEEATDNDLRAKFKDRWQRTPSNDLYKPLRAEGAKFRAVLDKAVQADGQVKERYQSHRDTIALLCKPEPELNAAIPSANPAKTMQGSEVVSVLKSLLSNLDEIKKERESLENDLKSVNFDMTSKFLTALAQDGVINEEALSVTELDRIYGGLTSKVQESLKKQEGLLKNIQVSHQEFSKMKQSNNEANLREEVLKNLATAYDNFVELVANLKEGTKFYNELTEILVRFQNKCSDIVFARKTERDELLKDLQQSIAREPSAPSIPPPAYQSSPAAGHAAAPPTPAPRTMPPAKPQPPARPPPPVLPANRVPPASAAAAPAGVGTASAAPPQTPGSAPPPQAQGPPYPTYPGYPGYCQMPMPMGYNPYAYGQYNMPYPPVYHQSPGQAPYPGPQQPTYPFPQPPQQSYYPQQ
The test can be described thus: co-IP.

Test [4] has as its target T3, Slc25A4 (mouse (endogenous in C2C12 and in mouse muscle)) (UniProt P48962).
T3 sequence: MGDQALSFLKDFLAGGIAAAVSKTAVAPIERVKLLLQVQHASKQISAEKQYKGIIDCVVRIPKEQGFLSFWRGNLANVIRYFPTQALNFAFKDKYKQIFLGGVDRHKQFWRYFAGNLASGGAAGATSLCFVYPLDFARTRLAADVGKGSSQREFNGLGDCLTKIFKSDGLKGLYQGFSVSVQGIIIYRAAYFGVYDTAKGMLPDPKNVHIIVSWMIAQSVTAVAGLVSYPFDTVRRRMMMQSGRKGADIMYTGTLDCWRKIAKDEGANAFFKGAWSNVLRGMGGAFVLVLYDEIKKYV
Nature of the test: co-IP.

The target in test [5] is T2, N-terminal FLAG-tagged full-length Alix. Nature of the test: co-IP. The source holds these as a separate data set.

Take Cul5 (from UniProt Q9D5V5 1-780): the binding entry in test [1] and in test [2] was “binds” in each case.
Regarding Tom20 (from UniProt Q9DCC8 1-145), the binding result in test [2] and in test [3] was “binds” in each case.

B1: Ozz (endogenous) (protein, UniProt Q9D0S4 1-285)
chain: T1 sequence (chain, biotin on the Avi-tag (biotinylated by the coexpressed bacterial ligase BirA))
With B1, the binding entry in test [4] is listed as “binds”.

B2: Slc25A4 (protein, UniProt P48962 1-298)
chain: T3 sequence
With B2, the binding result in test [2] and in test [5] was “binds” throughout.
